{
  "source": "paper PMC4947980",
  "about": "(Journal of Medicinal Chemistry, 2016)",
  "key": {"[1]": {"experiment": "Parallel artificial membrane permeability assay", "format": "in vitro ADME"}, "Plasma stability, mouse": {"experiment": "Plasma stability, mouse", "conditions": "1 μg/mL, 37 °C, parent ion monitored"}, "[2]": {"experiment": "Hydrolytic stability at pH 2, 7 and 12", "format": "physicochemical", "conditions": "percent remaining after a 4 h incubation at 37 °C"}},
  "data": [
    {"smiles": "CC1=C(C(=O)O)N2C(=O)[C@@H](NC(=O)[C@H](N)c3ccccc3)[C@H]2SC1", "note": "[cephalexin 4, cephalexin, reference compound]", "values": [
      {"measurement": "PAMPA mean Pe", "setting": "[1]", "result": "<0.0001 ^a 10^–6 cm/s"},
      {"measurement": "stability in mouse plasma (time to complete transformation)", "setting": "Plasma stability, mouse", "result": "stable"},
      {"measurement": "pH 12 stability", "setting": "[2]", "result": 0.000, "unit": "%"}
    ]}
  ]
}
